In article PMC12040169 (PLOS Biology, 2025):
The list shows a part of the results.

System: T1, CTL2-GFP (C. trachomatis L2/434/Bu, GFP-expressing)
T1 construct: L2/434/Bu, GFP-expressing
Set-up: species or system HeLa; Intracellular C. trachomatis growth in HeLa cells, bulk GFP fluorescence relative to DMSO
Conditions: bulk GFP, single well; 28.5 h, 10 µM; inhibitor

Going from Cc1ccc(-n2cc(CN(C)CC3(C)COC3)cn2)cc1 [CBK281720] to COC(=O)c1ccc(CSc2nnc(-c3ccc(OC)cc3)n2C(C)C)o1 [CBK297523], the “% of control remaining” value falls from 128.441% to 102.979%.

First: O=C(O)CCCC(=O)N1N=C(c2cccs2)CC1c1cn(-c2ccccc2)nc1-c1ccccc1 (stereo not shown) [CBK296124]
Second: O=C(CCc1ccccc1)N1CCCC1c1cccc(Cc2ccccc2F)n1 (stereo not shown) [CBK286208]
The “% of control remaining” value of the first is higher: 162.589% for the first, 94.3114% for the second.

Compared with O=C(O)c1cn(CCN2C(=O)c3ccccc3C2=O)nn1 [CBK286543], CCc1nnc2sc(-c3ccccc3Br)nn12 [CBK269533] is higher in “% of control remaining” value: 101.556% for the first, 126.626% for the second.

Going from Cc1csc(NC(=O)c2ncoc2-c2cccs2)n1 [CBK283972] to Cc1[nH]c2ccccc2c1C(=O)CSc1nnc(Cc2cccs2)n1C [CBK268663], the “% of control remaining” value falls from 127.339% to 79.9861%.

First: CCN(CC)C(=O)C1CCCN(C(=O)NCc2cc(OC)c(OC)c(OC)c2)C1 (stereo not shown) [CBK156130]
Second: CCOC(=O)N1CCC(NS(=O)(=O)c2ccc(OC)c(OC)c2)CC1 [CBK045464]
The “% of control remaining” value of the first is higher: 119.61% for the first, 90.6517% for the second.

Compared with Cc1ccccc1C1(O)CCN(CC(O)c2ccc3c(c2)OCCCO3)CC1 (stereo not shown) [CBK286332], COc1ccc(N(CC(O)CN2CCOCC2)S(=O)(=O)c2ccccc2)cc1 (stereo not shown) [CBK263589] is lower in “% of control remaining” value: 103.647% for the first, 100.661% for the second.

Going from O=C(Nc1ccc(N2CCCCC2)c2ccncc12)c1cccc(-n2cnnn2)c1 [CBK297754] to CCN(CC)C(=O)c1cccc(NS(=O)(=O)c2cccc3cccnc23)c1 [CBK038999], the “% of control remaining” value falls from 132.753% to 107.18%.

Going from CCn1c(CN2CCC(c3cc(O)nc(N)n3)C2)nc2c(F)cccc21 (stereo not shown) [CBK304189] to Cc1nc(C2CCN(C(=O)C3CCC3)CC2)nc2c1CCCN2CCc1ccccc1 [CBK285645], the “% of control remaining” value falls from 117.794% to 113.928%.

Going from COc1ccc(/C=C(/C(=O)NCc2ccc(Cl)cc2Cl)c2ccccc2)cc1 [CBK265256] to O=C(NCc1nc2ccccc2[nH]1)c1cc(Br)cnc1NCCOc1ccccc1 [CBK076220], the “% of control remaining” value falls from 113.187% to 109.975%.

First: CS(=O)(=O)c1ccc(-c2cnc3[nH]c(=O)n(-c4ccc5[nH]ccc5c4)c3n2)cc1 [CBK064691]
Second: COc1cc(C)ccc1S(=O)(=O)Nc1cccc2cc[nH]c12 [CBK159511]
The “% of control remaining” value of the first is higher: 116.374% for the first, 101.046% for the second.

Compared with Cc1nc(NS(=O)(=O)Cc2ccccc2[N+](=O)[O-])sc1C(=O)O [CBK045564], COc1ccc(C(=O)CSc2nnc(-c3ccccc3)[nH]2)cc1[N+](=O)[O-] [CBK263299] is lower in “% of control remaining” value: 130.189% for the first, 104.077% for the second.

First: Oc1cccc(-c2nccnc2NCc2cccc(C(F)(F)F)c2)c1 [CBK037014]
Second: Cn1nc(-c2ccc(S(=O)(=O)Nc3nc(-c4cccnc4)cs3)s2)cc1C(F)(F)F [CBK067270]
The “% of control remaining” value of the first is lower: 110.166% for the first, 126.448% for the second.

First: Nc1cccc(Sc2ncccn2)c1 [CBK085844]
Second: CC1CCCCC1NC(=O)CSc1cccc2cccnc12 (stereo not shown) [CBK058143]
The “% of control remaining” value of the first is higher: 97.8824% for the first, 90.4719% for the second.

Going from O=C(O)C1CCN(C(=O)NCCOc2ccccc2)CC1 [CBK156072] to C#CCNC(=O)C1CCN(c2nc3ccccc3n2CC=C)CC1 [CBK283925], the “% of control remaining” value falls from 108.1% to 101.75%.

Compared with O=c1cc(CN2CCC(Cc3ccccc3)CC2)[nH]c(=O)[nH]1 [CBK126388], CCn1ncc(S(=O)(=O)N2CCCC(c3ccccc3)C2)c1C (stereo not shown) [CBK282760] is higher in “% of control remaining” value: 106.626% for the first, 142.767% for the second.

Compared with Cn1c2c(c(=O)n(C)c1=O)[C@H]1[C@H](O)[C@H](O)C[C@H]1[C@@H](C(O)c1ccccc1)N2 (stereo partly shown) [CBK303236], CC(O)c1cc2n(n1)CCN(C(=O)c1csc(Cc3ccccc3)n1)C2 (stereo not shown) [CBK307437] is higher in “% of control remaining” value: 116.128% for the first, 126.703% for the second.

First: CC(NC(=O)CN1CCCCCC1=O)c1cc2cc(Cl)ccc2o1 (stereo not shown) [CBK281448]
Second: O=C(NC(=O)N1CCSC1)c1c(Cl)cccc1Cl [CBK028794]
The “% of control remaining” value of the first is lower: 125.014% for the first, 126.205% for the second.

Compared with Oc1cccc2c1CC(NCC(F)(F)C(F)(F)F)CC2 (stereo not shown) [CBK007596], O=S(=O)(CC(F)(F)F)Nc1cccc2cc[nH]c12 [CBK153585] is lower in “% of control remaining” value: 149.02% for the first, 118.107% for the second.

Compared with O=C(Nc1ccc(F)cc1)N1Cc2nc[nH]c2C[C@H]1c1nc(-c2ccc(F)cc2)no1 [CBK288970], CCCCOc1ccc(-c2nonc2NC(=O)COc2ccccc2Cl)cc1 [CBK299792] is lower in “% of control remaining” value: 123.68% for the first, 107.728% for the second.

Compared with CCCc1nc(SC)ncc1C(=O)Nc1nnc(SCC)s1 [CBK291198], CCCn1c(N)c(C(=O)CSc2ncnc3sc4c(c23)CCCC4)c(=O)[nH]c1=O [CBK297556] is higher in “% of control remaining” value: 94.2336% for the first, 136.379% for the second.

Going from CC(C)c1nn(C)c(N(C)C)c1CNCc1cscn1 [CBK304321C] to CCOC(=O)C(NC(=O)c1cn(C)cn1)c1cccc(C)c1C (stereo not shown) [CBK304098], the “% of control remaining” value falls from 132.027% to 102.866%.

Going from O=C(NCC1COc2ccccc2O1)N1CCCCC1CO (stereo not shown) [CBK156162] to Cc1ccc(CCC(=O)N2CCCC2c2nc3ccccc3[nH]2)o1 (stereo not shown) [CBK284012], the “% of control remaining” value falls from 151.368% to 99.3343%.

Going from Cc1ccc(S(=O)(=O)N(CCC#N)CCN2CCCC2)cc1 [CBK028055] to COc1cc(CN2CCNCC2)c2ccn(S(=O)(=O)c3ccccc3Cl)c2c1 [CBK144483T], the “% of control remaining” value rises from 82.9869% to 97.3762%.

First: FC(F)(F)c1nc2ccccc2[nH]1 [CBK028224]
Second: Cc1nc2c(C(=O)NCC(F)(F)F)cnn2c(C)c1Cc1ccccc1 [CBK162208]
The “% of control remaining” value of the first is higher: 105.898% for the first, 101.814% for the second.

Going from CCN(CC)C(=O)c1c(F)ccc(F)c1C(=O)O [CBK022303] to CCOC(=O)c1[nH]c2ccccc2c1NC(=O)c1c(F)ccc(Cl)c1F [CBK160141], the “% of control remaining” value falls from 142.441% to 99.9247%.

Compared with CCCC(=O)N(C)C(CO)c1cc(OC)ccc1Br (stereo not shown) [CBK304694], CCN(CC)CCn1c(OC)cc(=O)[nH]c1=O [CBK264411] is higher in “% of control remaining” value: 86.8166% for the first, 100% for the second.

First: CC1=NN(c2ccc([N+](=O)[O-])cc2)C(=O)/C1=C\NCCc1ccc(S(N)(=O)=O)cc1 [CBK263006]
Second: Cc1ccc(-c2nc3ccc(C)cc3c(C(=O)OCC(=O)c3cccc([N+](=O)[O-])c3)c2C)cc1 [CBK264436]
The “% of control remaining” value of the first is lower: 100% for the first, 122.734% for the second.

Going from S=c1[nH]nc(-c2ccco2)n1-c1ccc(Cl)cc1 [CBK023586] to CN1Cc2ccccc2-c2ccc(O)cc21 [CBK017804], the “% of control remaining” value falls from 160.456% to 100%.

First: Cc1ccc(-c2nnc(COc3ccc(-c4cnc5ccccc5n4)cc3)o2)cc1 [CBK269721]
Second: NC(=O)c1ccccc1-c1cnc(N)c(-c2ccc(O)cc2)n1 [CBK115536]
The “% of control remaining” value of the first is lower: 110.451% for the first, 124.646% for the second.

First: O=C(O)CNS(=O)(=O)c1ccc(Cl)c(Cl)c1 [CBK266981]
Second: CCc1cc(CNS(=O)(=O)c2ccc(C)s2)on1 [CBK283066]
The “% of control remaining” value of the first is higher: 154.071% for the first, 149.014% for the second.

Compared with Cc1cc(=O)oc2cc(NC(=S)NNC(=O)c3ccc4c(c3)c(C)c(C)n4Cc3ccccc3)ccc12 [CBK267138], OC(Cn1ccc2ccccc21)Cn1c(Cc2ccccc2)nc2ccccc21 (stereo not shown) [CBK267954] is lower in “% of control remaining” value: 164.906% for the first, 122.218% for the second.

Going from Clc1ccc(CN2CCC(Oc3nccnc3OC3CCCCC3)CC2)cc1 [CBK082856T] to COc1nccnc1N1CCN(CCCn2c(=O)[nH]c3ccccc32)CC1 [CBK084226], the “% of control remaining” value rises from 117.738% to 128.091%.

Going from COCCN1C(=O)C2(CC(=O)N(CC3CCCCC3)C2=O)c2cc(OC)ccc21 (stereo not shown) [CBK075166] to COc1ccc(-n2c(SCC(N)=O)nc3sc4c(c3c2=O)CC(C)(C)OC4)cc1 [CBK263232], the “% of control remaining” value falls from 105.549% to 103.294%.

First: O=[N+]([O-])c1ccc(CN2CCN(C/C=C/c3ccccc3)CC2)o1 [CBK026551]
Second: CC(Oc1ccccc1)C(=O)N1CCN(C/C=C/c2ccccc2)CC1 (stereo not shown) [CBK269050]
The “% of control remaining” value of the first is higher: 100.779% for the first, 93.0995% for the second.

First: O=C1NCCNC(=O)C2(C/C=C/COc3ccccc31)CCN(C(=O)c1cncs1)CC2 [CBK292023]
Second: O=C(c1cc(F)c(F)cc1F)N1CCC2(CCCN(CCCn3c(=O)[nH]c4ccccc43)C2)C1 (stereo not shown) [CBK132004]
The “% of control remaining” value of the first is lower: 118.878% for the first, 129.607% for the second.

Compared with C[C@H](Nc1cncc(-c2ccc3ccccc3c2)n1)c1ccccc1 [CBK065799], Nc1ccc(-c2ccccc2)c2ccccc12 [CBK084312] is lower in “% of control remaining” value: 108.008% for the first, 90.7899% for the second.

Going from O=C(C1CC2C=CC1C21CC1)N1CCC(Oc2cccc(F)c2)CC1 (stereo not shown) [CBK281525] to Cc1nc2ccccc2n1CC(=O)N(Cc1cccnc1)C1CC1 [CBK305248], the “% of control remaining” value falls from 132.727% to 91.6183%.

First: Cc1ccc(S(=O)(=O)NCCc2ccccn2)s1 [CBK269223]
Second: Brc1cccc(/C=N/c2ccc3nc(-c4ccccc4)[nH]c3c2)c1 [CBK261143]
The “% of control remaining” value of the first is higher: 118.404% for the first, 92.4385% for the second.

Compared with Cn1cnc2cc(-c3nnn[nH]3)ccc21 [CBK306265], CSc1ccc(/C=C(\C#N)c2nn(-c3ccccc3)c(N)c2C#N)cc1 [CBK262339] is lower in “% of control remaining” value: 155.581% for the first, 89.0466% for the second.

In the case of CCCC(=O)N1CCCCC1c1nn(C)cc1-c1onc(C)c1C (stereo not shown) [CBK283409], the “% of control remaining” value is reported as 144.197%.
